Test results: the supplement of paper PMC10849652
The other results are listed elsewhere or left out.

Sequences of proteins named here, by UniProt entry; tags and fusion partners are left off. A change or cut given only in a name is not applied to a line headed by its entry.
UniProt Q8TBB5: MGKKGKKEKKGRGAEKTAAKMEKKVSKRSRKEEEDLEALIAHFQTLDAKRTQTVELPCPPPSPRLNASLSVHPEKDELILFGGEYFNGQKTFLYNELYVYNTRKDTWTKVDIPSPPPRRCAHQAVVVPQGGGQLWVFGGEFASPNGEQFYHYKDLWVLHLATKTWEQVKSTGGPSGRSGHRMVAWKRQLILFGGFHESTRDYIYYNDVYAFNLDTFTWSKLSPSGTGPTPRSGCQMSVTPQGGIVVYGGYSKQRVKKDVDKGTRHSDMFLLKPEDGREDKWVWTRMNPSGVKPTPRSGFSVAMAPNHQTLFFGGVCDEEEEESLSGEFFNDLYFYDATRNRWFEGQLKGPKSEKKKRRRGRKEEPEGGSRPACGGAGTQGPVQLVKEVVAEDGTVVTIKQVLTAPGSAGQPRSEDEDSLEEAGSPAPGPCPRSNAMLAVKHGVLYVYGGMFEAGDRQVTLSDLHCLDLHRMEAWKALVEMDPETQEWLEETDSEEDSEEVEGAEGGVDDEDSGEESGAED
UniProt Q9Y496, whole entry, looked up: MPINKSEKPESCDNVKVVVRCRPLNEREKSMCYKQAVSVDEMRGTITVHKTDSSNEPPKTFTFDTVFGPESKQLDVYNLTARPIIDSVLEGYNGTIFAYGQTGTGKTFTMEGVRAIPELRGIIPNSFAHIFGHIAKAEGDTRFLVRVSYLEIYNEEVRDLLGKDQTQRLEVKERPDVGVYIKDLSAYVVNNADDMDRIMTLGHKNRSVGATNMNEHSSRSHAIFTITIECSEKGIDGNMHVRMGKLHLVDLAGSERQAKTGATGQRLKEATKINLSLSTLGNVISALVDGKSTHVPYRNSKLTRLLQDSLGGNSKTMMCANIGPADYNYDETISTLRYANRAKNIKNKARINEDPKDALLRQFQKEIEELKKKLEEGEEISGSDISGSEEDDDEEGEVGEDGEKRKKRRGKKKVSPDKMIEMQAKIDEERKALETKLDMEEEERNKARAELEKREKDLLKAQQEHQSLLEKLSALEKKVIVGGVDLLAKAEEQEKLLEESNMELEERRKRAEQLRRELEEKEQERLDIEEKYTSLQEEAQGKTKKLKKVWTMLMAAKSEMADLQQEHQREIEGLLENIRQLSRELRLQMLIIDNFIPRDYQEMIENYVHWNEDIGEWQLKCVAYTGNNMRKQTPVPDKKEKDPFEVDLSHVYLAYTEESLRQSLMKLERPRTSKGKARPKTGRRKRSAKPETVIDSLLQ
UniProt Q4G0J3: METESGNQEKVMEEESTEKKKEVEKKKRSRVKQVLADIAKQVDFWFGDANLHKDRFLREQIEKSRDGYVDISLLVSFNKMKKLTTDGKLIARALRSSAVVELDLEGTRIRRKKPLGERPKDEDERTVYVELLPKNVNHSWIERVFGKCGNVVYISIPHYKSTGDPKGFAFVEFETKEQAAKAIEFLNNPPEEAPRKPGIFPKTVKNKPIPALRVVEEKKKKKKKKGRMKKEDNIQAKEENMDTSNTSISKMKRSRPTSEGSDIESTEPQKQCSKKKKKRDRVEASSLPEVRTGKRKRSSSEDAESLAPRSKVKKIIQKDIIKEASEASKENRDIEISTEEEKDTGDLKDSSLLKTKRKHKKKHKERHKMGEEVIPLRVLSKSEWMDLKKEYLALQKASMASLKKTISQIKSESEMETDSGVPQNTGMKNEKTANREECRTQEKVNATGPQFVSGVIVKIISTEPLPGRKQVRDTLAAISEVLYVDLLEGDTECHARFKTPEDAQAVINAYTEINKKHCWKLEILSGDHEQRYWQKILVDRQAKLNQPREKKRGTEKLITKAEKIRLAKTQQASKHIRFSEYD
UniProt P11279: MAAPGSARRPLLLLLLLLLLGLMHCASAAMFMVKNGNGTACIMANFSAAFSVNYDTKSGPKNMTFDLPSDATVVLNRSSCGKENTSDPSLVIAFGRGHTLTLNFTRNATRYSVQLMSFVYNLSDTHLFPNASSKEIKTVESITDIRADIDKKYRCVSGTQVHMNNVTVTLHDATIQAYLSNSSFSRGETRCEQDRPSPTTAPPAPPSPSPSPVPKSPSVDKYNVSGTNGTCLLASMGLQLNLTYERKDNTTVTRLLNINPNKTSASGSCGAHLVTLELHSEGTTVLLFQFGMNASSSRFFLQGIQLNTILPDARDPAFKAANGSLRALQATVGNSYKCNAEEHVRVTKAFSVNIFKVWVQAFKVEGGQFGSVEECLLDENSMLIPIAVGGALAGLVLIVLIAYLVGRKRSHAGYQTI
UniProt P83111: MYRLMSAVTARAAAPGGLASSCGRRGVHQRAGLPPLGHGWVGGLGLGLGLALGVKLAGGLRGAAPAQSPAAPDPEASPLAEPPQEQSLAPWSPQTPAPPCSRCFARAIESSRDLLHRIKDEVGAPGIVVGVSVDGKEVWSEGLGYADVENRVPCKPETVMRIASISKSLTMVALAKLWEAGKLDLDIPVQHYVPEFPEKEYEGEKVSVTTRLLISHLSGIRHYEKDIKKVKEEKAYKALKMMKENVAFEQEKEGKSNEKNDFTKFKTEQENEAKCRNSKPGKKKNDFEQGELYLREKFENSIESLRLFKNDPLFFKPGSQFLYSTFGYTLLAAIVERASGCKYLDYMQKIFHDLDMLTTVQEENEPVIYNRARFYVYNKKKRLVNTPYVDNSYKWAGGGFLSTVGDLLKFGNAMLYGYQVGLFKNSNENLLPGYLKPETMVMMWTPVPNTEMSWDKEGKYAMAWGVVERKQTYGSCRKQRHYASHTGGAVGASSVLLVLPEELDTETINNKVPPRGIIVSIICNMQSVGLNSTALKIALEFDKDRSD
UniProt Q96EK5: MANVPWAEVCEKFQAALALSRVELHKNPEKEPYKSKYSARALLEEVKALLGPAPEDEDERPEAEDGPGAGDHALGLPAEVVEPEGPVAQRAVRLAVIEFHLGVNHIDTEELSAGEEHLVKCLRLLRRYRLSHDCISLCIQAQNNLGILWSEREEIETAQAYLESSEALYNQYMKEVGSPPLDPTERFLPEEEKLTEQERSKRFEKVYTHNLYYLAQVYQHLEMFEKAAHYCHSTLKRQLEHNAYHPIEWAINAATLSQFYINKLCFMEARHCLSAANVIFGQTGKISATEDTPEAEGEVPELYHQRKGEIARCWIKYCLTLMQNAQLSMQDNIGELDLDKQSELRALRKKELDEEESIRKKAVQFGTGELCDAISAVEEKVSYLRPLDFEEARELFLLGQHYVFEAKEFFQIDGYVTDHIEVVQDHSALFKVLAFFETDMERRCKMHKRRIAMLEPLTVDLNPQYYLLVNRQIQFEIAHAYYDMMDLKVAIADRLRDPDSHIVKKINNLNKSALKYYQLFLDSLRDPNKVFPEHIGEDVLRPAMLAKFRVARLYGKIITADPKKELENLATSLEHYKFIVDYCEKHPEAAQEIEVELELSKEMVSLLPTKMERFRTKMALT
UniProt P50053: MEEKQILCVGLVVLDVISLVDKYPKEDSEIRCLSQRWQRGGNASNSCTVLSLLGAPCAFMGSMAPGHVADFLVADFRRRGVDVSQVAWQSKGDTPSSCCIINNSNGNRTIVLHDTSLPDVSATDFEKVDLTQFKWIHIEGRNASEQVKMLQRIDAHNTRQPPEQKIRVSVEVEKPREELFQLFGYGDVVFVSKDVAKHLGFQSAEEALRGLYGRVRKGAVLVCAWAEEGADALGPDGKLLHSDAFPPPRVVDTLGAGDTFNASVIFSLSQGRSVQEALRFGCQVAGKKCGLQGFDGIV
UniProt P28838: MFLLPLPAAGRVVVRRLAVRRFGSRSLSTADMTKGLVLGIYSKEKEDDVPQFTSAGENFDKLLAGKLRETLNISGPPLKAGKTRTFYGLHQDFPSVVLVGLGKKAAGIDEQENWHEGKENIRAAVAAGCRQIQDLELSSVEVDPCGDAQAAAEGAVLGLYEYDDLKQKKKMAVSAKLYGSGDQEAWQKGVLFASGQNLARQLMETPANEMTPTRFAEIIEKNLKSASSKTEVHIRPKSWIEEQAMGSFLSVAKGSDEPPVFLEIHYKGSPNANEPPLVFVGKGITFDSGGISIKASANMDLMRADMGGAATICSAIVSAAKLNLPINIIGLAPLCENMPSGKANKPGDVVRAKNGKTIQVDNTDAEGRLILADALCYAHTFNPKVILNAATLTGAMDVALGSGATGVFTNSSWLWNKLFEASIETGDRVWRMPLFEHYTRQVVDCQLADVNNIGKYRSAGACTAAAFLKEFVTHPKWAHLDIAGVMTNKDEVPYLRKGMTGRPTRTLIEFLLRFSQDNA

Legend:
Assay in all cases: log2 fold change, soluble protein after heating vs DMSO (PISA); higher = thermal stabilisation; K562 lysate, 10 uM; active = over 0.2 and 3.5 SD of the protein, either way, in both replicates (recomputed)
vemurafenib = compound: CCCS(=O)(=O)Nc1ccc(F)c(C(=O)c2c[nH]c3ncc(-c4ccc(Cl)cc4)cc23)c1F [vemurafenib]
In short: (§1)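 K562 pellets were dounce-homogenised in PBS pH 7.4 with 1 mM MgCl2, and the crude extract at 1 mg/mL protein was treated with 10 μM compound for 30 min. Aliquots were heated for 3 min across 48°C-58°C, pooled, and brought to 0.5% NP-40 at 4°C; soluble protein was the supernatant after 21,000xg for 90 min. Soluble protein was quantified by TMTpro 16plex LC-MS/MS with channel sums equalised, and reported as log2 fold change in thermal stability against DMSO controls, with values from duplicates.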

[1] = compound: CCCS(=O)(=O)Nc1ccc(F)c(C(=O)c2c[nH]c3ncc(Cl)cc23)c1F
In short: as §1

barasertib = compound: CCN(CCCOc1ccc2c(Nc3cc(CC(=O)Nc4cccc(F)c4)[nH]n3)ncnc2c1)CCOP(=O)(O)O [barasertib]
In short: as §1

[2] = compound: CC[C@@H]1C(=O)N(C)c2cnc(Nc3ccc(C(=O)NC4CCN(C)CC4)cc3OC)nc2N1C1CCCC1
In short: as §1

volasertib = compound: CC[C@@H]1C(=O)N(C)c2cnc(Nc3ccc(C(=O)N[C@H]4CC[C@H](N5CCN(CC6CC6)CC5)CC4)cc3OC)nc2N1C(C)C [volasertib]
In short: as §1

[3] = compound: CCn1c(C(=O)N(C2CC2)C2CC2)cc2c3c(ncn3C)c(Nc3cc(C)n(C)n3)nc21
In short: as §1

[4] = compound: CCn1cc(-c2ccnc3[nH]c(-c4cccc(CN(C)C)c4)cc23)c(-c2ccc(NC(=O)N(C)C)cc2)n1
In short: as §1

[5] = compound: CN1CCC(CNc2ccc3ncc(-c4cccc(OC(F)(F)F)c4)n3n2)CC1
In short: as §1

saracatinib = compound: CN1CCN(CCOc2cc(OC3CCOCC3)c3c(Nc4c(Cl)ccc5c4OCO5)ncnc3c2)CC1 [saracatinib]
In short: as §1

sotrastaurin = compound: CN1CCN(c2nc(C3=C(c4c[nH]c5ccccc45)C(=O)NC3=O)c3ccccc3n2)CC1 [sotrastaurin]
In short: as §1

alvocidib = compound: CN1CC[C@H](c2c(O)cc(O)c3c(=O)cc(-c4ccccc4Cl)oc23)[C@H](O)C1 [alvocidib]
In short: as §1

Tubastatin A = compound: CN1CCc2c(c3ccccc3n2Cc2ccc(C(=O)NO)cc2)C1 [Tubastatin A]
In short: as §1

[6] = compound: CNC(=O)C1=CC=CC=C1NC2=NC(=NC=C2Cl)NC3=C(C=C(C=C3)N4CCOCC4)OC
In short: as §1

defactinib = compound: CNC(=O)c1ccc(Nc2ncc(C(F)(F)F)c(NCc3nccnc3N(C)S(C)(=O)=O)n2)cc1 [defactinib]
In short: as §1

[7] = compound: CNc1nc(-c2ccc3c(N)n[nH]c3c2)cc(N2C[C@@H](C(=O)NC3CCCCC3)CC[C@H]2C)n1
In short: as §1

encorafenib = compound: COC(=O)N[C@@H](C)CNc1nccc(-c2cn(C(C)C)nc2-c2cc(Cl)cc(NS(C)(=O)=O)c2F)n1 [encorafenib]
In short: as §1

[8] = compound: COC(=O)[C@H](CCSC)NC(=O)C1=C(C=C(C=C1)NC[C@H](CS)N)C2=CC=CC=C2
In short: as §1

alisertib = compound: COc1cc(Nc2ncc3c(n2)-c2ccc(Cl)cc2C(c2c(F)cccc2OC)=NC3)ccc1C(=O)O [alisertib]
In short: as §1

[9] = compound: COc1cc2nc(-c3cc(F)ccc3O)nc(N[C@@H]3CNC[C@H]3C(C)(C)O)c2cc1OC
In short: as §1

gefitinib = compound: COc1cc2ncnc(Nc3ccc(F)c(Cl)c3)c2cc1OCCCN1CCOCC1 [gefitinib]
In short: as §1

Measured: log2 fold change

KLHDC4 (UniProt Q8TBB5)
inactive: vemurafenib 0.069 | [1] -0.007 | barasertib -0.055 | [2] -0.01 | volasertib 0.014 | [3] -0.007 | [4] 0 | [5] -0.039 | saracatinib 0.017 | sotrastaurin 0.016 | alvocidib 0.049 | Tubastatin A 0.009 | [6] 0.004 | defactinib -0.014 | [7] -0.022 | encorafenib 0.029 | [8] -0.07 | alisertib 0.046 | [9] 0.044 | gefitinib -0.016

KIF3A (UniProt Q9Y496)
inactive: vemurafenib 0.012 | [1] 0.034 | barasertib 0.063 | [2] -0.004 | volasertib -0.123 | [3] -0.251 | [4] 0.04 | [5] 0.029 | saracatinib -0.037 | sotrastaurin -0.063 | alvocidib -0.087 | Tubastatin A 0.205 | [6] -0.017 | defactinib -0.015 | [7] -0.025 | encorafenib 0 | [8] 0.05 | alisertib 0.06 | [9] 0.072 | gefitinib -0.053

LARP7 isoform 3 (UniProt Q4G0J3)
inactive: vemurafenib 0.011 | [1] 0.02 | barasertib -0.011 | [2] -0.019 | volasertib 0.003 | [3] -0.029 | [4] -0.002 | [5] -0.001 | saracatinib 0.019 | sotrastaurin -0.007 | alvocidib -0.004 | Tubastatin A 0.034 | [6] 0.004 | defactinib -0.023 | [7] -0.025 | encorafenib 0.001 | [8] 0.001 | alisertib -0.009 | [9] -0.01 | gefitinib -0.013

LAMP1 (UniProt P11279)
active: [4] -0.508
inactive: vemurafenib -0.009 | [1] 0.02 | barasertib 0.001 | [2] 0.059 | volasertib 0.056 | [3] -0.097 | [5] 0.24 | saracatinib 0.018 | sotrastaurin 0.022 | alvocidib -0.242 | Tubastatin A 0.051 | [6] -0.013 | defactinib -0.03 | [7] 0.059 | encorafenib 0.015 | [8] -0.047 | alisertib 0.017 | [9] 0.028 | gefitinib 0.053

LACTB (UniProt P83111)
inactive: vemurafenib 0.028 | [1] 0.035 | barasertib 0.052 | [2] -0.028 | volasertib -0.044 | [3] -0.057 | [4] 0.085 | [5] 0.014 | saracatinib -0.013 | sotrastaurin 0.047 | alvocidib 0.065 | Tubastatin A 0.021 | [6] 0.05 | defactinib 0.052 | [7] -0.033 | encorafenib 0.012 | [8] 0.014 | alisertib -0.019 | [9] -0.012 | gefitinib 0.015

KIFBP (UniProt Q96EK5)
inactive: vemurafenib 0.051 | [1] 0.004 | barasertib 0.035 | [2] -0.081 | volasertib -0.084 | [3] 0.043 | [4] 0 | [5] -0.039 | saracatinib 0.048 | sotrastaurin 0.045 | alvocidib 0.017 | Tubastatin A -0.09 | [6] 0.026 | defactinib 0.058 | [7] -0.011 | encorafenib 0.025 | [8] 0.103 | alisertib -0.003 | [9] -0.015 | gefitinib -0.012

KHK isoform 2 (UniProt P50053)
inactive: vemurafenib -0.021 | [1] 0 | barasertib 0.052 | [2] -0.053 | volasertib 0.017 | [3] 0.076 | [5] -0.072 | saracatinib 0.067 | sotrastaurin 0.013 | alvocidib 0.058 | Tubastatin A -0.001 | [6] -0.057 | defactinib -0.038 | [7] -0.068 | encorafenib 0.03 | [8] -0.02 | alisertib 0.008 | [9] 0.083 | gefitinib -0.038
active: [4] 0.404

LAP3 (UniProt P28838)
inactive: vemurafenib 0.107 | [1] 0.024 | barasertib -0.002 | [2] 0.195 | volasertib 0.054 | [3] -0.095 | saracatinib 0.082 | sotrastaurin 0.042 | alvocidib -0.249 | Tubastatin A 0.082 | [6] 0.069 | defactinib -0.063 | [7] 0.191 | encorafenib 0.006 | [8] 0.004 | alisertib -0.02 | [9] 0.038 | gefitinib -0.004
active: [4] -0.495 | [5] 0.36
